Measurements reported in PubChem BioAssay AID1259424 (University of Nebraska Medical Center, 2018)
This is one part, drawn at random, of about 14,000 deposited reagents. 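Higher correlation or smaller distance means closer resemblance to KSR1 loss; control wells, including KSR1 knockdowns, recur on many plates.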 Further read-outs or replicates are left out here. Not given: the time to read-out.

Test: 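Find knockdowns that reproduce the expression shifts seen after KSR1 loss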 (primary screen)
Cell system: human HCT116 colon cancer cells
Reagents: siRNA pool against human genes, 50 nM
Detection: 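Six signature mRNAs by branched-DNA multiplex assay, scaled to two housekeeping genes and non-targeting median, log2; matched to mean KSR1 knockdown profile by Pearson correlation and euclidean distance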
Direction: mean correlation with KSR1 profile: higher = expression change more like KSR1 knockdown

| gene | mean correlation with KSR1 profile |
| --- | --- |
| SCAND1 | 0.0103 |
| GPC4 | -0.471 |
| KDM4B | -0.491 |
| SCYL2 | 0.0747 |
| CENPBD2P | 0.0854 |
| KCNK7 | 0.152 |
| FABP4 | 0.611 |
| TAAR5 | 0.44 |
| GPR176 | 0.553 |
| CRELD1 | 0.707 |
| FAM222A | 0.619 |
| GABRR2 | -0.136 |
| PPIE | -0.426 |
| SYMPK | 0.725 |
| CROCC | -0.0718 |
| CHMP6 | 0.488 |
| SERTAD4 | -0.0609 |
| PSMD12 | -0.456 |
| TGFB3 | -0.487 |
| CAPN1 | -0.00702 |
| NFKBIE | -0.245 |
| DCSTAMP | 0.67 |
| FZD6 | -0.55 |
| POMT1 | 0.343 |
| GLG1 | -0.21 |
| PIP5KL1 | -0.115 |
| EBF2 | -0.0977 |
| RPL11 | -0.144 |
| SPIC | 0.789 |
| GPR68 | 0.708 |
| DUOX2 | -0.548 |
| EPHA1 | -0.0664 |
| AGTR1 | 0.561 |
| KIF23 | -0.0467 |
| FUT9 | -0.267 |
| CCL18 | -0.0285 |
| SETX | -0.707 |
| FGF11 | -0.261 |
| HEY1 | 0.586 |
| STRBP | -0.00909 |
| DDRGK1 | -0.66 |
| USP10 | -0.381 |
| KIF3C | -0.105 |
| CSPG4P2Y | -0.00737 |
| MED18 | 0.588 |
| EIF3H | 0.269 |
| FAM3C | 0.0435 |
| POLR1H | -0.156 |
| CKAP2 | -0.188 |
| ZNF346 | 0.106 |
| UGDH | 0.759 |
| TNRC6C | -0.673 |
| TAOK3 | 0.118 |
| INSM1 | 0.605 |
| F13B | -0.715 |
| FGFR2 | 0.196 |
| ECHDC1 | 0.000166 |
| USP30 | 0.543 |
| KLHL27 | -0.0718 |
| GBA1 | -0.439 |
| XCR1 | 0.399 |
| CA1 | -0.347 |
| CMTR1 | -0.28 |

Ordered by “mean correlation with KSR1 profile” (high to low): some entries from above
| gene | mean correlation with KSR1 profile |
| --- | --- |
| SYMPK | 0.725 |
| CRELD1 | 0.707 |
| FAM222A | 0.619 |
| GPR176 | 0.553 |
| CHMP6 | 0.488 |
| SERTAD4 | -0.0609 |
| CROCC | -0.0718 |
| GABRR2 | -0.136 |
| PPIE | -0.426 |
